# Assay results published in PubChem BioAssay AID504444 (National Center for Advancing Translational Sciences (NCATS), 2011).
# Hit rate of the full screen: of about 360,000 compounds, about 7,500 (2.1%) were called active. This list was built around the results that the source calls inconclusive (neither active nor inactive); the mix of calls is not that of the screen. Calls follow the shape of the dose curve; as a rule, active = well fitted inhibition curve with a large enough effect; inconclusive = small, poorly fitted or top-dose-only effect, or effect the other way; inactive = flat fitted curve, though single readings scatter. Potencies beside an inconclusive call are fits to weak or partial responses and may not hold up.
# Test: Nrf2 qHTS screen for inhibitors; also: nearly all actives have a fitted effect of over 60% in size
# Settings: A549 ARE-Fluc reporter, luciferase luminescence, 18-24 h; series mostly up to 46 µM
# In short: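 A549 ARE_Fluc cells, 5000/well, 5% FBS OPTI-MEM; compounds in dose-response, 18-24 h at 37 °C/5% CO2; CellTiter-Fluor viability read (Ex 405/Em 525), then BugLite luciferase luminescence = Nrf2 activity.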
# Potency is read from the fitted curve at half-maximal effect.
row,SMILES,Potency
1,O=C(Nc1cccc(-c2ccc(N3CCCCC3)nn2)c1)c1ccco1,"inconclusive: 0.411 µM [activator, full curve]"
2,Cc1ccc(C)c(OCC(=O)NC2CCCCCC2)c1,"inconclusive: 29.1 µM [falling, single point]"
3,COc1ccc2c(c1)c1nnc(SC)nc1n2Cc1ccccc1,inactive
4,Cc1ccc(/C(O)=C/c2nc3ccccc3oc2=O)cc1,inactive
5,Cc1ccc(NS(=O)(=O)c2ccc(-c3cc(C)no3)cc2)c(Br)c1,active: 23.1 µM
6,COc1cccc(/C=C/C(=O)NCC2CCCCC2)c1,"inconclusive: 9.2 µM [activator, partial curve]"
7,O=C(Nc1ccc(Cc2ccncc2)cc1)c1ccc(S(=O)(=O)N2CCCC2)cc1,active: 16.4 µM
8,NC(=O)c1ccccc1OCCOc1ccc(Br)cc1,"inconclusive: 3.66 µM [falling, partial curve, poor fit]"
9,O=C(NC1CCCC1)C(c1ccncc1)N(Cc1ccccc1)C(=O)c1ccc(-c2ccccc2)[nH]1 (centres undefined),"inconclusive: 20.6 µM [falling, single point]"
10,CCOc1ccccc1NC(=O)N1CCC2(CC1)Oc1ccccc1C(=O)N2Cc1ccccc1F,"inconclusive: 8.2 µM [falling, partial curve, poor fit]"
11,Cc1csc2c(N3CCN(S(=O)(=O)c4ccc(Cl)cc4)CC3)ncnc12,"inconclusive: 5.8 µM [activator, full curve, poor fit]"
12,C/C(=N\NC(=O)c1ccccc1)c1ccccc1F,"inconclusive: 5.17 µM [activator, full curve]"
13,O=C(NNC(=S)NCc1ccccc1)c1ccc2c(c1)OCO2,"inconclusive: 2.91 µM [activator, single point]"
14,C[C@@H]1C[C@H]2[C@@H]3CCC4=CC(=O)C=C[C@]4(C)[C@@]3(F)[C@@H](O)C[C@]2(C)[C@@]1(O)C(=O)COP(=O)(O)O,active: 0.0231 µM
15,COc1ccc(/C=N/NC(=O)c2nc(-c3ccccc3)n(-c3ccccc3)n2)c(O)c1,"inconclusive: 4.61 µM [falling, full curve, poor fit]"
16,Cc1ccc(-c2ccc(S(=O)(=O)Nc3cccnc3)cc2)cc1,active: 11.6 µM
17,FC(F)(F)c1cnc(-c2cnc(-c3ccccn3)nc2)c(Cl)c1,"inconclusive: 9.2 µM [activator, partial curve]"
18,N#Cc1c[nH]n2c(NC3CCCC3)c(-c3ccc(Cl)cc3)nc12,"inconclusive: 29.1 µM [falling, single point]"
19,CCn1c(=NC(=O)CCS(=O)(=O)c2ccccc2)sc2cccc(OC)c21,"inconclusive: 20.6 µM [falling, single point]"
